Consider two sequences from paper PMC7026642, “Secondary nucleotide messenger c-di-GMP exerts a global control on natural product biosynthesis in streptomycetes” (Nucleic Acids Research, 2020).

Tags and fusion partners may be left off the protein sequences shown.

The test system of data set [1] is T1, BldDgh (Streptomyces ghanaensis).
T1 sequence (looked up): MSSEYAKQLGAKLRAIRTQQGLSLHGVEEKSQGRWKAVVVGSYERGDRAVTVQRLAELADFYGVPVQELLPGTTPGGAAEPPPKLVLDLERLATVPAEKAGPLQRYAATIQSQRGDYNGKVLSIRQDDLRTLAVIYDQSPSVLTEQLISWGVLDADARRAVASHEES
Kind of data set: EMSA. Particulars: 1 uM c-di-GMP, 10 mM Tris pH 7.5, 1 mM EDTA, 5% glycerol, 10 mM NaCl, 1 mM MgCl2, 1 ug poly(dI-dC), 20 fmol probe in 15 ul, 37 C, 25 min, recombinant protein, label: 5'-33P, probe letters rebuilt from the primers and the genome.

Data set [2] has the same test system. The data set is described as follows: competition with a labelled probe. The conditions noted are these: unlabeled wblAghp 10-200x competes, 0.75 uM BldDgh, 1.5 uM c-di-GMP; 10 mM Tris pH 7.5, 1 mM EDTA, 5% glycerol, 10 mM NaCl, 1 mM MgCl2, 1 ug poly(dI-dC), 1 uM c-di-GMP, 20 fmol probe in 15 ul, 37 C, 25 min; recombinant protein; residues 1-167; protein details: N-terminal His6 (pET28a); label: 5'-33P; probe letters rebuilt from the primers and the genome.

Regarding “CGAGACCTCGGAGTGAATCAAGGGTTGTCTTCGGCGCCTTTCCCGATGGTGCCCCGGCAGCTTCCCGCCACTGAATCACAGCGCGCTGCTCACTCGGTACACAGGGTCAACAATTCCCGCCCCTTGTGACTCAAGTCACAGCCAAACGTGAACAATTACGCGGCCTTTCCAGAGTTTTCCGTGCATACGCCGAACGCGTCCTTCACGGCGGTTGCGCACGGTTCGCGCACGGGTCGGCCGCTGGTCCTAGGTCCTCGCTCGGGCCGGGGCCCGATGCGGCGGGTGTGAAGCGGAGATTAGCGTTTCCGGTGTGCCGAACACTCCAGCCACCCCCTCCGCGATCACCTCCGTGCCCGCCGCCCGGCATGCTGAGGGGGTGAGCAACGACGAGTTCCGCGCCGCCATGTCCCGGCTGGCCTCCGGTGTGGTCCTGGTGACCGCGCAGGAGCCGCCGCTGGACCCGGACGACCCCCGGGCGCCGGCCGGCGAGGACGCCGGCATGACGGCGACCGCGTTCCTGTCGGTCTCCCTGGA (double strand) [cdgBgh promoter (cdgBghp)]”, the binding result in data set [1] (residues 1-167, protein details: N-terminal His6 (pET28a)) is reported as “binds”.
As to “GGGCCACGTATCAATACGTCCGGCGACCCCGAATCGTTCCGGGCCCTCTCGACTTTCTCGACCTGGGTGGGTGGGTCCGTGTCCGGATCCGCCTCGTGTGTCACGTGGTGCCCGTTGTGACGCAACGGAACTGACCTGGAATGCCGGGATTGTCGCGCATGTCGTCACCTCACTCCCCCGGGTGATCTGCCGCTTACCCATAGTCCGTTCGGACCATTCAAGATTGGGCCCGCTGGGGGTGTTGCGCTGTGTCCACCTTCCGTAACGTCCTCAACTGGCGGCGGTGAATATGCCGCTGCCGCCGTGGGGGAGCCTCGATTCGGGAGAGGACGGCGCCGGTATGGGCTGGGTTACCGACTGGAGTGCGCAGGCTGCCTGCCGCACTACCGATCCGGATGAA (double strand) [wblAgh promoter (wblAghp)]”, the binding result in data set [1] (0.75 uM BldDgh, c-di-GMP titration 0.5-3 uM, binding significantly improved by c-di-GMP, residues 1-167, protein details: N-terminal His6 (pET28a)) is given as “binds”; in data set [1] (one complex, residues 1-167, protein details: N-terminal His6 (pET28a)) it was “binds”; in data set [2], “binds”.
